The target of experiment [1] is Clover-AZIN A325N (human) (UniProt O14977). Put plainly: FRET or BRET; Clover fusion protein constant at 50 nM, mRuby2 fusion of antizyme titrated; TBS pH 7.4 + 0.15% Tween-20, 1 hour at room temperature; plate reader, fit of donor quenching; both purified.
In experiment [2] the target is Clover-AZIN S329Y (human) (UniProt O14977). Described as above.

Amino acid sequences for entries named in this document (tags omitted). A change or cut given only in a name is not applied to a line headed by its entry.
UniProt O14977: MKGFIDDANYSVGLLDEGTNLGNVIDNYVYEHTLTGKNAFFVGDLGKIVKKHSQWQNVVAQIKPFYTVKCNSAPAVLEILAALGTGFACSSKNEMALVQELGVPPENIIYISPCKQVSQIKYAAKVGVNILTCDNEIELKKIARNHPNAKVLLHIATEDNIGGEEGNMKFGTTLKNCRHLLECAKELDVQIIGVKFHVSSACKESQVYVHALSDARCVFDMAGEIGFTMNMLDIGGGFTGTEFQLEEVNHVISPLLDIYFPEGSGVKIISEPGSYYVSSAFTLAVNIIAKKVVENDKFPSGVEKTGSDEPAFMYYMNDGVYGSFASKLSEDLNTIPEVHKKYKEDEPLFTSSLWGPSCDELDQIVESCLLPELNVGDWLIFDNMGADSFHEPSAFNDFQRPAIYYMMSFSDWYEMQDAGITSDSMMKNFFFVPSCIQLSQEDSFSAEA
UniProt P54368: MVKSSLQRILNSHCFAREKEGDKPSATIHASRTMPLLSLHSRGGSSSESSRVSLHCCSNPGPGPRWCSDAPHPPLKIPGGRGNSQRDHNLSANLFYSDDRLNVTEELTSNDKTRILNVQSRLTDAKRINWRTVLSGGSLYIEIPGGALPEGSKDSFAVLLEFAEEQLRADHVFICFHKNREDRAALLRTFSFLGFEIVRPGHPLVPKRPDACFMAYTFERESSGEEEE

These are yes or no findings as the source states them, for the method shown. Binding calls can cover weak binding; strength is not graded here.

Results on 1 substance are retold here after paper PMC6420652.

Consider “antizyme-mRuby2 (antizyme with a C-terminal mRuby2 tag) (from UniProt P54368 1-228)”, for which the binding entry in experiment [1] and in experiment [2] was “binds” throughout.
